The results are deposited in PubChem (AID504749; NCATS, 2011).

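Malaria parasite (P. falciparum) lines kept in red blood cells; parasite DNA is measured by SYBR Green fluorescence after lysis, 72 h after compound addition.
Each compound was titrated across a series from about 0.000037 to 29 µM.
The number is the fitted AC50, the concentration giving a half-maximal change in signal; a lower value means higher potency, whether the curve shows a decrease or an increase.
Calls follow the curve class and fit quality: every row here is inconclusive, covering signal-raising curves and weak, poorly fitted, partial or highest-dose-only inhibition curves.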

Values are in nM.
All entries here are filed as inconclusive.
These entries are mostly ones the record files as inconclusive; other results of the assay are not listed here.
Potencies fitted to partial, single-point or poorly fitting curves are rough.

| compound | condition | potency (nM) | curve as filed |
|---|---|---|---|
| `O=C1CCC(c2ccccc2)(C2CCN(Cc3ccccc3)CC2)C(=O)N1` (stereo not given) | CP305 | 11995 | inhibitor, partial curve, poor fit |
| `O=C1CCC(c2ccccc2)(C2CCN(Cc3ccccc3)CC2)C(=O)N1` (stereo not given) | CP335 | 9528 | inhibitor, partial curve, poor fit |
| `O=C1CCC(c2ccccc2)(C2CCN(Cc3ccccc3)CC2)C(=O)N1` (stereo not given) | DIV17 | 13459 | inhibitor, single point |
| `O=C1CCC(c2ccccc2)(C2CCN(Cc3ccccc3)CC2)C(=O)N1` (stereo not given) | Dd2 | 10000 | inhibitor, partial curve, poor fit |
| `O=C1CCC(c2ccccc2)(C2CCN(Cc3ccccc3)CC2)C(=O)N1` (stereo not given) | 7G8 | 7080 | inhibitor, partial curve |
| `O=C1CCC(c2ccccc2)(C2CCN(Cc3ccccc3)CC2)C(=O)N1` (stereo not given) | DIV14 | 11995 | inhibitor, single point |
| `O=C1CCC(c2ccccc2)(C2CCN(Cc3ccccc3)CC2)C(=O)N1` (stereo not given) | TAB109 | 8912 | inhibitor, single point |
| `CN1CCN(CCCN2c3ccccc3Sc3ccc(S(=O)(=O)N(C)C)cc32)CC1` | CP297 | 8087 | inhibitor, single point |
| `CN1CCN(CCCN2c3ccccc3Sc3ccc(S(=O)(=O)N(C)C)cc32)CC1` | ATS95 | 7080 | inhibitor, single point |
| `CN1CCN(CCCN2c3ccccc3Sc3ccc(S(=O)(=O)N(C)C)cc32)CC1` | N140 | 7080 | inhibitor, single point |
| `CN1CCN(CCCN2c3ccccc3Sc3ccc(S(=O)(=O)N(C)C)cc32)CC1` | CP286 | 10000 | inhibitor, single point |
| `CN1CCN(CCCN2c3ccccc3Sc3ccc(S(=O)(=O)N(C)C)cc32)CC1` | DIV17 | 6424 | inhibitor, single point |
| `CN1CCN(CCCN2c3ccccc3Sc3ccc(S(=O)(=O)N(C)C)cc32)CC1` | CP215 | 8087 | inhibitor, single point |
| `CN1CCN(CCCN2c3ccccc3Sc3ccc(S(=O)(=O)N(C)C)cc32)CC1` | TAB109 | 7080 | inhibitor, single point |
| `CN1CCN(CCCN2c3ccccc3Sc3ccc(S(=O)(=O)N(C)C)cc32)CC1` | JCK | 10000 | inhibitor, single point |
| `CN1CCN(CCCN2c3ccccc3Sc3ccc(S(=O)(=O)N(C)C)cc32)CC1` | PC49 | 4467 | inhibitor, single point |
| `CN1CCN(CCCN2c3ccccc3Sc3ccc(S(=O)(=O)N(C)C)cc32)CC1` | GB4 | 7208 | inhibitor, single point |
| `CN1CCN(CCCN2c3ccccc3Sc3ccc(S(=O)(=O)N(C)C)cc32)CC1` | AS120 | 7080 | inhibitor, single point |
| `CN1CCN(CCCN2c3ccccc3Sc3ccc(S(=O)(=O)N(C)C)cc32)CC1` | PC15 | 7080 | inhibitor, single point |
| `CN1CCN(CCCN2c3ccccc3Sc3ccc(S(=O)(=O)N(C)C)cc32)CC1` | HB3 | 4467 | inhibitor, single point |
| `CN1CCN(CCCN2c3ccccc3Sc3ccc(S(=O)(=O)N(C)C)cc32)CC1` | CP268 | 5726 | inhibitor, single point |
| `CN1CCN(CCCN2c3ccccc3Sc3ccc(S(=O)(=O)N(C)C)cc32)CC1` | C2A | 10000 | inhibitor, single point |
| `CN1CCN(CCCN2c3ccccc3Sc3ccc(S(=O)(=O)N(C)C)cc32)CC1` | CP325 | 5726 | inhibitor, single point |
| `CN1CCN(CCCN2c3ccccc3Sc3ccc(S(=O)(=O)N(C)C)cc32)CC1` | FAB9 | 10000 | inhibitor, single point |
| `CN1CCN(CCCN2c3ccccc3Sc3ccc(S(=O)(=O)N(C)C)cc32)CC1` | PC26 | 7208 | inhibitor, single point |
| `CN1CCN(CCCN2c3ccccc3Sc3ccc(S(=O)(=O)N(C)C)cc32)CC1` | TAB113 | 10000 | inhibitor, single point |
| `CN1CCN(CCCN2c3ccccc3Sc3ccc(S(=O)(=O)N(C)C)cc32)CC1` | CP260 | 7080 | inhibitor, single point |
| `CN1CCN(CCCN2c3ccccc3Sc3ccc(S(=O)(=O)N(C)C)cc32)CC1` | CP291 | 5726 | inhibitor, single point |
| `CN1CCN(CCCN2c3ccccc3Sc3ccc(S(=O)(=O)N(C)C)cc32)CC1` | DFO2036 | 10000 | inhibitor, single point |
| `CN1CCN(CCCN2c3ccccc3Sc3ccc(S(=O)(=O)N(C)C)cc32)CC1` | CP247 | 7943 | inhibitor, single point |
| `CN1CCN(CCCN2c3ccccc3Sc3ccc(S(=O)(=O)N(C)C)cc32)CC1` | CP305 | 5726 | inhibitor, single point |
| `CN1CCN(CCCN2c3ccccc3Sc3ccc(S(=O)(=O)N(C)C)cc32)CC1` | SC27B | 7080 | inhibitor, single point |
| `CN1CCN(CCCN2c3ccccc3Sc3ccc(S(=O)(=O)N(C)C)cc32)CC1` | CP269 | 6424 | inhibitor, single point |
| `CN1CCN(CCCN2c3ccccc3Sc3ccc(S(=O)(=O)N(C)C)cc32)CC1` | CP238 | 10000 | inhibitor, single point |
| `CN1CCN(CCCN2c3ccccc3Sc3ccc(S(=O)(=O)N(C)C)cc32)CC1` | CP256 | 10000 | inhibitor, single point |
| `CN1CCN(CCCN2c3ccccc3Sc3ccc(S(=O)(=O)N(C)C)cc32)CC1` | CP335 | 6424 | inhibitor, single point |
| `CN1CCN(CCCN2c3ccccc3Sc3ccc(S(=O)(=O)N(C)C)cc32)CC1` | 3D7 | 7080 | inhibitor, single point |
| `CN1CCN(CCCN2c3ccccc3Sc3ccc(S(=O)(=O)N(C)C)cc32)CC1` | CP250 | 10000 | inhibitor, single point |
| `CN1CCN(CCCN2c3ccccc3Sc3ccc(S(=O)(=O)N(C)C)cc32)CC1` | CP203 | 8087 | inhibitor, single point |

3 of the entries, repeated:

compound	condition	potency (nM)	curve as filed
CN1CCN(CCCN2c3ccccc3Sc3ccc(S(=O)(=O)N(C)C)cc32)CC1	FAB9	10000	inhibitor, single point
CN1CCN(CCCN2c3ccccc3Sc3ccc(S(=O)(=O)N(C)C)cc32)CC1	CP305	5726	inhibitor, single point
O=C1CCC(c2ccccc2)(C2CCN(Cc3ccccc3)CC2)C(=O)N1 (stereo not given)	CP335	9528	inhibitor, partial curve, poor fit